{"source": "PubChem BioAssay AID652259 (Drosophila RNAi Screening Center, 2013)", "purpose": "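Knock-downs that push a Wingless-driven reporter up or down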 (primary screen)", "system": "Drosophila clone 8 imaginal disc epithelial cells", "reagents": "long dsRNA against Drosophila genes", "conditions": "pathway stimulated by co-transfected Wingless expression plasmid", "measurement": "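Dual luciferase reads per well after Wingless plasmid stimulation: reporter firefly light and Renilla control light; activity is firefly divided by Renilla, a ratio not deposited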", "direction": "firefly reporter light: higher = more Wg reporter light, before normalisation; Renilla control light: higher = more transfected or surviving cells", "active means": "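a knock-down is a candidate when at least two out of four statistical tests show it departing from its plate mean; one test alone signals a weak candidate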", "calls": "active = candidate regulator (raises or lowers reporter); inactive = not a candidate", "note": "In all, the deposit lists about 22,000 reagents; below is an unselected part of those with a known target gene and a result. Over the whole deposit, 233 (1.1%) were called active. 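Light values are raw, unnormalised plate reads; the ratio scores behind the reporter calls were not deposited.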 Entries without a mark were called inactive. Reagents against one gene are numbered here. A plus sign joins genes that one reagent is predicted to hit. No sequences are given here. Not given: the amount of reagent, the time to read-out, the dose of the treatment."}
{"target gene":"CR17024 (pseudo)","dsRNA no.":1,"firefly reporter light, replicate 1":2898,"firefly reporter light, replicate 2":10556,"Renilla control light, replicate 1":1867,"Renilla control light, replicate 2":5329}
{"target gene":"Daao2 (D-amino acid oxidase 2)","dsRNA no.":1,"firefly reporter light, replicate 1":17911,"Renilla control light, replicate 1":6275}
{"target gene":"Jabba","dsRNA no.":1,"firefly reporter light, replicate 1":17584,"Renilla control light, replicate 1":4112}
{"target gene":"Rpt5 (Regulatory particle triple-A ATPase 5)","dsRNA no.":1,"firefly reporter light, replicate 1":2417,"firefly reporter light, replicate 2":5472,"Renilla control light, replicate 1":710,"Renilla control light, replicate 2":1381}
{"target gene":"CG11342","dsRNA no.":1,"firefly reporter light, replicate 1":2035,"firefly reporter light, replicate 2":7273,"Renilla control light, replicate 1":1660,"Renilla control light, replicate 2":3371}
{"target gene":"CG17234","dsRNA no.":1,"firefly reporter light, replicate 1":2029,"firefly reporter light, replicate 2":5651,"Renilla control light, replicate 1":774,"Renilla control light, replicate 2":2330}
{"target gene":"Dtg (Dpp target gene)","dsRNA no.":1,"firefly reporter light, replicate 1":7236,"Renilla control light, replicate 1":3015}
{"target gene":"CG15365","dsRNA no.":1,"firefly reporter light, replicate 1":25914,"Renilla control light, replicate 1":3289}
{"target gene":"bsh (brain-specific homeobox)","dsRNA no.":1,"firefly reporter light, replicate 1":2317,"Renilla control light, replicate 1":874}
{"target gene":"GramD1B (GRAM domain containing 1B)","dsRNA no.":1,"firefly reporter light, replicate 1":2451,"firefly reporter light, replicate 2":6157,"Renilla control light, replicate 1":1587,"Renilla control light, replicate 2":1312}
{"target gene":"GramD1B (GRAM domain containing 1B)","dsRNA no.":2,"firefly reporter light, replicate 1":13638,"Renilla control light, replicate 1":3101}
{"target gene":"CG15139 (retired record)","dsRNA no.":1,"firefly reporter light, replicate 1":3753,"firefly reporter light, replicate 2":16211,"Renilla control light, replicate 1":1139,"Renilla control light, replicate 2":3216}
{"target gene":"CG6800","dsRNA no.":1,"firefly reporter light, replicate 1":28376,"Renilla control light, replicate 1":4704}
{"target gene":"Tim8","dsRNA no.":1,"firefly reporter light, replicate 1":21029,"Renilla control light, replicate 1":10358}
{"target gene":"Sirt2 (Sirtuin 2)","dsRNA no.":1,"firefly reporter light, replicate 1":10400,"Renilla control light, replicate 1":3025}
{"target gene":"CG7878","dsRNA no.":1,"firefly reporter light, replicate 1":14182,"Renilla control light, replicate 1":3066}
{"target gene":"TRAM","dsRNA no.":1,"firefly reporter light, replicate 1":18311,"Renilla control light, replicate 1":16940}
{"target gene":"TRAM","dsRNA no.":2,"firefly reporter light, replicate 1":14137,"Renilla control light, replicate 1":11909}

4 entries from above, set out differently:
target gene,dsRNA no.,"firefly reporter light, replicate 1","firefly reporter light, replicate 2","Renilla control light, replicate 1","Renilla control light, replicate 2"
Rpt5 (Regulatory particle triple-A ATPase 5),1,2417,5472,710,1381
CG11342,1,2035,7273,1660,3371
CG17234,1,2029,5651,774,2330
Dtg (Dpp target gene),1,7236,,3015,

The listing continues:
{"target gene":"cn (cinnabar)","dsRNA no.":1,"firefly reporter light, replicate 1":2570,"firefly reporter light, replicate 2":7427,"Renilla control light, replicate 1":1139,"Renilla control light, replicate 2":2874}
{"target gene":"blo (bloated)","dsRNA no.":1,"firefly reporter light, replicate 1":6230,"Renilla control light, replicate 1":1938}
{"target gene":"CG17065","dsRNA no.":1,"firefly reporter light, replicate 1":18528,"Renilla control light, replicate 1":9792}
{"target gene":"CG3288","dsRNA no.":1,"firefly reporter light, replicate 1":17826,"Renilla control light, replicate 1":5597}
{"target gene":"CG31886","dsRNA no.":1,"firefly reporter light, replicate 1":10871,"Renilla control light, replicate 1":3484}
{"target gene":"CrzR (Corazonin receptor)","dsRNA no.":1,"firefly reporter light, replicate 1":4838,"Renilla control light, replicate 1":2712}
{"target gene":"CrzR (Corazonin receptor)","dsRNA no.":2,"firefly reporter light, replicate 1":8096,"Renilla control light, replicate 1":2368}
{"target gene":"EMC2B + EMC2A","dsRNA no.":1,"firefly reporter light, replicate 1":21772,"Renilla control light, replicate 1":4713}
{"target gene":"Echs1 (Enoyl-CoA hydratase, short chain 1)","dsRNA no.":1,"firefly reporter light, replicate 1":7319,"Renilla control light, replicate 1":2627}
{"target gene":"ssp2 (short spindle 2)","dsRNA no.":1,"firefly reporter light, replicate 1":8938,"Renilla control light, replicate 1":2123}
{"target gene":"Hmg-2 (High mobility group protein 2)","dsRNA no.":1,"firefly reporter light, replicate 1":6704,"Renilla control light, replicate 1":1699}
{"target gene":"CG9632","dsRNA no.":1,"firefly reporter light, replicate 1":9685,"Renilla control light, replicate 1":2169}
{"target gene":"CG7786","dsRNA no.":1,"firefly reporter light, replicate 1":9908,"Renilla control light, replicate 1":3632}
{"target gene":"pwn (pawn)","dsRNA no.":1,"firefly reporter light, replicate 1":3011,"firefly reporter light, replicate 2":7968,"Renilla control light, replicate 1":864,"Renilla control light, replicate 2":3206}
